PubChem BioAssay AID652272 – Drosophila RNAi Screening Center – 2013
In all, the deposit lists about 21,000 reagents; below is a random part of those with a known target gene and a result. Of all reagents, 503 (2.4%) got an active call. 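Raw plate light values, not normalised; calls rest on replicate z-scores that were not deposited; hits include reporter decreases as well as increases.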 Unmarked entries are inactive. The numbers tell different reagents against one gene apart. A plus sign joins genes that one reagent is predicted to hit. No sequences are given here. Not stated in the record: the amount of reagent, the time to read-out.

Assay: 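Finding fly genes that regulate Hedgehog signal transduction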 (primary screen)
Cells: Drosophila clone 8 (Cl8) cells
Knock-down reagent: long dsRNA against Drosophila genes
Detection: 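Firefly light from a Hedgehog-responsive ptc promoter reporter and Renilla reference light, both read on a plate reader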
Reading the numbers: firefly Hh reporter signal: higher = more ptc reporter light; Renilla reference signal: higher = more Renilla control light
Call rule: 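Called a hit if the two-replicate mean z-score lies below -2 or above +3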
Meaning of the calls: active = hit: reporter lowered or raised; inactive = not a hit

gene knocked down | reagent no. | firefly Hh reporter signal, replicate 1 | firefly Hh reporter signal, replicate 2 | firefly Hh reporter signal, replicate 3 | Renilla reference signal, replicate 1 | Renilla reference signal, replicate 2
ohgt (ohgata) | 1 | 72861 | 97024 | – | 2395 | 2807
Ntl (Neurotransmitter transporter-like) | 1 | 6.70e5 | 1.28e5 | – | 4992 | 4992
CG14961 | 1 | 1.01e5 | 46792 | – | 2459 | 3628
Muc12Ea (Mucin 12Ea) | 1 | 1.29e5 | 7.62e5 | 3.40e5 | 3965 | 1914
CG5644 | 1 | 47594 | 41799 | – | 4995 | 3241
CG42580 | 1 | 6.50e5 | 2.65e5 | – | 38564 | 6104
CG31195 | 1 | 52842 | 1.36e5 | – | 11621 | 2871
CG14174 | 1 | 32070 | 30614 | 59669 | 4197 | 4141
GlyT (Glycine transporter) | 1 | 52874 | 43564 | – | 1228 | 4368
CG42685 | 1 | 2.18e5 | 4.44e5 | 72674 | 5168 | 27152
CG8249 | 1 | 54501 | 57048 | – | 631 | 3505
CG8516 | 1 | 63016 | 1.08e5 | – | 2058 | 3254
CG7920 | 1 | 1.54e5 | 1.40e5 | – | 3622 | 3584
CG14835 | 1 | 64215 | 39898 | – | 8311 | 2835
CG9839 | 1 | 1.46e5 | 80886 | – | 5613 | 3572
CG3168 | 1 | 58282 | 44839 | – | 1831 | 1223
CG7606 | 1 | 51600 | 2.09e5 | – | 10775 | 5560
CG7606 | 2 | 93027 | 95899 | – | 4080 | 2325
CG8087 | 1 | 1.12e5 | 1.27e5 | – | 4884 | 3293
CG14490 | 1 | 66294 | 64456 | – | 1623 | 4389
Mal-A7 (Maltase A7) | 1 | 77826 | 42576 | – | 1651 | 3808
Cyp12c1 (Cytochrome P450 12c1) | 1 | 78280 | 43205 | – | 3953 | 1297
Mdr65 (Multi drug resistance 65) | 1 | 27152 | 4.39e5 | 72521 | 2970 | 25498
CG9877 | 1 | 1.45e5 | 84325 | – | 3595 | 7298
Ir52a (Ionotropic receptor 52a) | 1 | 96656 | 77008 | – | 2619 | 4838
Rad23 | 1 | 1.05e5 | 84818 | – | 2657 | 3152
Ugt36A1 + CG15418 | 1 | 1.84e5 | 78555 | – | 4536 | 7069
cmpy (crimpy) | 1 | 71213 | 91286 | – | 3024 | 2948
ninaC (neither inactivation nor afterpotential C) | 1 | 33868 | 73141 | – | 2000 | 2712
comr (cookie monster) | 1 | 80792 | 58467 | – | 2390 | 5900
CG40006 | 1 | 1.28e5 | 2.25e5 | – | 3587 | 9927
CG40006 | 2 | 1.46e5 | 2.55e5 | – | 4338 | 13190
CG40006 | 3 | 1.43e5 | 2.24e5 | – | 3872 | 9273
CG40006 | 4 | 1.36e5 | 2.58e5 | – | 3874 | 11133
Polr2K (RNA polymerase II, I and III subunit K) | 1 | 1.27e5 | 2.64e5 | – | 3338 | 9924
CG1638 | 1 | 92929 | 2.54e5 | – | 2793 | 9403
CG11841 | 1 | 82960 | 1.22e5 | – | 1716 | 3323
CG17839 | 1 | 77168 | – | – | 2625 | 2165
CG17839 | 2 | 69719 | – | – | 2118 | 2064
CG9514 | 1 | 74626 | 1.97e5 | – | 2609 | 8609
CG9514 | 2 | 81753 | 2.14e5 | – | 2668 | 9328
Andorra | 1 | 1.18e5 | 3.16e5 | – | 3227 | 11331
CG5397 | 1 | 92795 | 87561 | – | 3617 | 3625
nmdyn-D6 | 1 | 88551 | 2.22e5 | – | 3012 | 8768
Polr3E (RNA polymerase III subunit E) | 1 | 52960 | 87131 | – | 2312 | 3079
CG42564 | 1 | 62323 | 1.03e5 | – | 2502 | 3293
CG15098 | 1 | 90645 | 24354 | – | 1921 | 1546
noi (noisette) | 1 | 64867 (active) | 35200 | – | 4160 | 2391
CG32750 | 1 | 71574 | 1.65e5 | – | 2484 | 6023
Aven (Apoptosis and caspase activation inhibitor) | 1 | 92633 | 2.53e5 | – | 3312 | 9050
hdly (hadley) | 1 | 6.27e5 | 1.10e5 | – | 32299 | 3026
Uxt (Uxt prefoldin-like subunit) | 1 | 91232 | 64005 | – | 2765 | 5577
Sfxn2 (Sideroflexin 2) | 1 | 1.01e5 | 1.03e5 | – | 3216 | 2960
CG9459 | 1 | 1.00e5 | 1.88e5 | – | 3492 | 4841
CG32260 | 1 | 1.03e5 | 2.36e5 | – | 3170 | 8195
CG33552 | 1 | 1.22e5 | 2.62e5 | – | 2705 | 9632
Cpr76Bd (Cuticular protein 76Bd) | 1 | 1.19e5 | 1.37e5 | – | 4233 | 3845
